Results as given in patent US10849992B1, “Methods of screening for sortilin binding antagonists” (ALECTOR LLC, priority 2015, dated 2020).
These are yes or no findings as the source states them, for the method shown. Some binding calls cover weakened binding; strength is not graded here.

What was measured:
[1] = biological target: T1, human sortilin expressed on cells (human, UniProt Q99523 78-831); assay: flow cytometry, blocking of PGRN-DyLight650 binding and endocytosis on sortilin-expressing cells
T1 construct: Transiently transfected HEK293T cells; also called Sortilin1; full-length Sortilin
T1 sequence: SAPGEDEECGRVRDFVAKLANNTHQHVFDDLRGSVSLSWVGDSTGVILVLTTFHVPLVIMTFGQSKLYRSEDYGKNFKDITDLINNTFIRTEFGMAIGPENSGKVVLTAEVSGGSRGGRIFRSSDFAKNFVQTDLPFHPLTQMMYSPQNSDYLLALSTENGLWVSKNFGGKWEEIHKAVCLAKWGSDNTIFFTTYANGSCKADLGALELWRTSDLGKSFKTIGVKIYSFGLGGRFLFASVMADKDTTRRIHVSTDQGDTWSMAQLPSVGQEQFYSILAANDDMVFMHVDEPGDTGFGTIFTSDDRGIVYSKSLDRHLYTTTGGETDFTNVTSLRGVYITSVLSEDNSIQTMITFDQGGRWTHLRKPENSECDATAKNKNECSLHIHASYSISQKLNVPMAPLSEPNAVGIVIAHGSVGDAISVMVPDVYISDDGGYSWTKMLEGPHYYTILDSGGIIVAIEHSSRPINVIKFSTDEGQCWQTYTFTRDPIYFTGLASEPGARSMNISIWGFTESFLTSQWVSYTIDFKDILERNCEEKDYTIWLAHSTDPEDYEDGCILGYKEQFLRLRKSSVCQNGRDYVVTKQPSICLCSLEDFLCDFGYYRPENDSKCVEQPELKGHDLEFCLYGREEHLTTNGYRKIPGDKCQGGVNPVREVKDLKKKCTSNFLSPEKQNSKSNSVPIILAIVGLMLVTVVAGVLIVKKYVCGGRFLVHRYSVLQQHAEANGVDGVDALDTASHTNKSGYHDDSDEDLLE

[2] = biological target: T1, human sortilin expressed on cells; assay: fluorescence microscopy, blocking of 40 nM DyLight-650 PGRN on HEK293T cells transfected with human sortilin
[3] = biological target: T1, human sortilin expressed on cells; assay: flow cytometry, blocking of biotinylated human PGRN on sortilin-expressing HEK293T cells by the sortilin pro-domain peptide

Measured: binding

B1: sortilin pro-domain peptide (peptide, UniProt Q99523 34-77, looked up)
peptide: QDRLDAPPPPAAPLPRWSGPIGVSWGLRAAAAGGAFPRGGRWRR
notes: domain: pro-domain; also called Sortilin1 pro-domain peptide; sortilin pro-peptide
binds: all assays above
